Measurements as given in publication PMC12748969.
These are yes or no findings as the source states them, for the method shown. Binding seen in cells or lysates may run through a third protein. Some binding calls cover weakened binding; strength is not graded here.

Amino acid sequences for entries named in this document (tags omitted).
UniProt P19785: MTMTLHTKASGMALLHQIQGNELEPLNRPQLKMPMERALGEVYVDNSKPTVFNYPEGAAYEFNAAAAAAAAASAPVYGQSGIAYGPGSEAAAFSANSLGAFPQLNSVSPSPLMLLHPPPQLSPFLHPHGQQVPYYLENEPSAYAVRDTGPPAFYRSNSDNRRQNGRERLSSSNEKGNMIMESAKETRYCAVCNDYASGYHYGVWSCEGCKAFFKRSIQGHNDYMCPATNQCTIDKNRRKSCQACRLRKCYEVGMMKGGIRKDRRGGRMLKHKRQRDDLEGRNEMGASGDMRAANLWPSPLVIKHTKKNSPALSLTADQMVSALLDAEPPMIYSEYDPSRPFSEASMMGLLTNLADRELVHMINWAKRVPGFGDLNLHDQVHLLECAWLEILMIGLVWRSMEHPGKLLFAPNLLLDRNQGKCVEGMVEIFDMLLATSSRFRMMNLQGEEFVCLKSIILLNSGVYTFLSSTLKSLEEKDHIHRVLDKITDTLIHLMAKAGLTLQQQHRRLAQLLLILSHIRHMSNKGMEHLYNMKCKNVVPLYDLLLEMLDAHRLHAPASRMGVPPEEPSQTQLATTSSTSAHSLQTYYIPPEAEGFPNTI
UniProt Q00175: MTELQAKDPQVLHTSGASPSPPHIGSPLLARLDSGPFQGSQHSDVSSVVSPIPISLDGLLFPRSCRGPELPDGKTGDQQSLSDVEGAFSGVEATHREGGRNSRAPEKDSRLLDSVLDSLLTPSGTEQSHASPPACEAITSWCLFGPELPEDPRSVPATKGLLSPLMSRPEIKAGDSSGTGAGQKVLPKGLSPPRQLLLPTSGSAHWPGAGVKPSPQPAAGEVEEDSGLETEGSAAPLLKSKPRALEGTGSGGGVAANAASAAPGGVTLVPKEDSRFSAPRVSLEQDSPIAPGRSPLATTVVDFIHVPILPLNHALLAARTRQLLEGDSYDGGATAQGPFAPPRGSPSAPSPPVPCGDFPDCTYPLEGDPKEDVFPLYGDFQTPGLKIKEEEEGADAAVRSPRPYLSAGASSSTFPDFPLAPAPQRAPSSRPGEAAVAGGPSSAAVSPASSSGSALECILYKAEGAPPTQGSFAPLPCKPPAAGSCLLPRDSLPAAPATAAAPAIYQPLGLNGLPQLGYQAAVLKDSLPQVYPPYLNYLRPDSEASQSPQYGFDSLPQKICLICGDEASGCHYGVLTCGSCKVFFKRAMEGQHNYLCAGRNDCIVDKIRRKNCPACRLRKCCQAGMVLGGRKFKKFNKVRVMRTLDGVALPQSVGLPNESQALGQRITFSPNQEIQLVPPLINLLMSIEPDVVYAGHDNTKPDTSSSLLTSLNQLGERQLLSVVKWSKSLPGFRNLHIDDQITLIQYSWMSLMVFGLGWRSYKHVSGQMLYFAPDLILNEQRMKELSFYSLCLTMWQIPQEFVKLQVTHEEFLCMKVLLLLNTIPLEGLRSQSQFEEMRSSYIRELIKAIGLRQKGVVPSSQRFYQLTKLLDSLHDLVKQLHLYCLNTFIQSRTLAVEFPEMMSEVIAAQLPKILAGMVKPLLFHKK

T1: oestrogen-related receptor alpha (ERRα) (mouse (endogenous in prefrontal cortex tissue and primary cortical neurons)) (UniProt O08580)
T1 sequence: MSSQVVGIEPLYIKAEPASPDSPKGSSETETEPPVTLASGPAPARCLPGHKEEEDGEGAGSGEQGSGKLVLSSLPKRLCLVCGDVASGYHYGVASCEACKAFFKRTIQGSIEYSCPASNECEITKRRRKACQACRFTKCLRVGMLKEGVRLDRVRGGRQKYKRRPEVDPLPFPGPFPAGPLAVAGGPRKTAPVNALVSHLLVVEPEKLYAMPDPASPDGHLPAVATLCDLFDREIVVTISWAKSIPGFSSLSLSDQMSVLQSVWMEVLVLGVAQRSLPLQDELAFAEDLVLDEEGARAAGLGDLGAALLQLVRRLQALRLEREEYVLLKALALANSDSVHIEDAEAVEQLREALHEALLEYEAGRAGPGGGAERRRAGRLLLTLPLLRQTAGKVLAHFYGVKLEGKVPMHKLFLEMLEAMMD


Experiments:
[1] = target: oestrogen receptor alpha (ERα) (mouse (endogenous in cortical tissue of 3xTg mice)) (UniProt P19785); assay: co-IP; RIPA lysates of cortical tissue of 3xTg mice, vehicle or VCD (Cycle 7) and with or without P4 supplementation (Cycle 14); Dynabeads Protein G, immunoblot; which protein was precipitated not given
[2] = target: T1, oestrogen-related receptor alpha (ERRα) (mouse (endogenous in prefrontal cortex tissue and primary cortical neurons)); assay: co-IP; RIPA lysates of mouse primary neurons after treatments (E2 with or without P4, mifepristone or MPP dihydrochloride, as for the other panels of Fig. 4); Dynabeads Protein G, immunoblot; which protein was precipitated not given
[3] = target: T1, oestrogen-related receptor alpha (ERRα) (mouse (endogenous in prefrontal cortex tissue and primary cortical neurons)); assay: co-IP; RIPA lysates of prefrontal cortex tissue of vehicle- or VCD-treated mice; 1 mg lysate precleared with control IgG and Dynabeads Protein G, antibody overnight at 4 °C, immunoblot; which protein was precipitated not given

| binding [1] | binding [2] | binding [3] | Molecule |
| --- | --- | --- | --- |
| binds |  |  | progesterone receptor (PR) (from UniProt Q00175 1-926) |
|  | binds | binds | PGC1α (ERRα coactivator, encoded by PPARGC1A) (protein, UniProt O70343 1-797) MAWDMCSQDSVWSDIECAALVGEDQPLCPDLPELDLSELDVNDLDTDSFLGGLKWCSDQSEIISNQYNNEPANIFEKIDEENEANLLAVLTETLDSLPVDEDGLPSFDALTDGAVTTDNEASPSSMPDGTPPPQEAEEPSLLKKLLLAPANTQLSYNECSGLSTQNHAANHTHRIRTNPAIVKTENSWSNKAKSICQQQKPQRRPCSELLKYLTTNDDPPHTKPTENRNSSRDKCASKKKSHTQPQSQHAQAKPTTLSLPLTPESPNDPKGSPFENKTIERTLSVELSGTAGLTPPTTPPHKANQDNPFKASPKLKPSCKTVVPPPTKRARYSECSGTQGSHSTKKGPEQSELYAQLSKSSGLSRGHEERKTKRPSLRLFGDHDYCQSLNSKTDILINISQELQDSRQLDFKDASCDWQGHICSSTDSGQCYLRETLEASKQVSPCSTRKQLQDQEIRAELNKHFGHPCQAVFDDKSDKTSELRDGDFSNEQFSKLPVFINSGLAMDGLFDDSEDESDKLSYPWDGTQPYSLFDVSPSCSSFNSPCRDSVSPPKSLFSQRPQRMRSRSRSFSRHRSCSRSPYSRSRSRSPGSRSSSRSCYYYESSHYRHRTHRNSPLYVRSRSRSPYSRRPRYDSYEAYEHERLKRDEYRKEHEKRESERAKQRERQKQKAIEERRVIYVGKIRPDTTRTELRDRFEVFGEIEECTVNLRDDGDSYGFITYRYTCDAFAALENGYTLRRSNETDFELYFCGRKQFFKSNYADLDTNSDDFDPASTKSKYDSLDFDSLLKEAQRSLRR |
